This note sets out measurements from PubChem BioAssay AID1508600 (Functional Genomics Laboratory (NCATS/FGL), 2020).

Screen size: about 53,000 sequences; about 3,700 (7%) were called active.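 The calls were made as follows: active = gene knockdowns whose robust z-score for IL-1 alpha signal is at least 2 or at most -2, so actives lie on both sides; inactive = the rest.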 This is one part of the list.

This experiment can be described thus: Components of the Cytosolic LPS Sensing Pathway: Gene Identification via Genome-wide siRNA Screen.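 Also: robust z of the log signal after scaling to non-targeting control siRNA wells of the plate.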 The settings on record: RAW264.7 macrophages, IL-1a HTRF, actives lie on both sides, screened at 100 nM (by protocol), cells primed 5 h with Pam3CSK4 first. The method, boiled down:
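Mouse macrophage line RAW264.7 is transfected with siRNA (100 nM final), grown 48h, primed with TLR ligand Pam3CSK4 5 h and given intracellular LipidA 24 h. IL-1a in supernatant is read by HTRF and viability by luminescence.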
GCUUCCUACCAUGAUGGUCTT against Otol1: the z-score is active: 2.13.

For the sequence GGAACAUCUAUUUGUCAUGTT against Olfr310, the z-score is inactive: -0.796.

Consider CCACUGUUAUCAAGAUCCCTT against Olfr1176, for which the z-score is inactive: 1.88.

Regarding CCGCAUGUUUGGAAAGGAUTT against Cabp4, the z-score was inactive: -0.484.

For the sequence GCUUGGGUUCAGUGUGAAGTT against H2-D1, the z-score was inactive: 0.362.

Consider GGAUUCUGCCCAAUGAGGATT against Inpp5d, for which the z-score was inactive: 0.675.

Consider GGGUAUGUGAGUUGGAAGATT against Inpp4a, for which the z-score was inactive: -0.748.

GGUGUUGUUGCUGAUACCUTT against Rbms3: the z-score is inactive: -0.794.

In the case of GGUAGUGGUACACCUUAAGTT against Ctsc, the z-score is inactive: -0.481.

As for CGAAAAGCCUCAUUUCAUCTT against Hexim1, the z-score is inactive: 0.544.

Take GGAGCAUAUAUAGAAUUAGTT against Mrps22: the z-score is active: 3.01.

For the sequence GGAUCCACUGCUUUCAAGUTT against Alg9, the z-score is inactive: 1.19.

GGCCUUGUAGGAAGCAUUGTT against Slc37a4: the z-score is inactive: -0.0497.

For GCUAAGACACGAUAAACUUTT against Yes1, the z-score was inactive: 1.34.

For CCAUAUGUCACUGCACUUATT against Vwc2, the z-score was inactive: 0.51.

On to ACCGAAAAUCUUCAGUACUTT against Gm3696, for which the z-score is inactive: -0.382.

With GGGCAUUCUAUUAAACAUGTT against Fam53a, the z-score was inactive: 1.33.

For CCGGCAUUUACCAUAAUAATT against Mcm2, the z-score is inactive: 0.462.

GGAGAGUCCAGUUUCCAUUTT against Rnf113a1: the z-score is inactive: 1.44.

Consider GCGAACAACAAUGCUUAAATT against Mga, for which the z-score is inactive: 0.0678.

For the sequence GGGACUCCCUACAUUAAUCTT against Hddc3, the z-score is inactive: -0.659.

Turning to ACAUGUCCUCUGUGCAUAUTT against Cyp2d12, the z-score is inactive: 0.1.

On to GCAAAAAUGGAAGUAUCUGTT against Ube2dnl1, for which the z-score is inactive: 0.286.

With GGAAUUAACAGAGAAGAAATT against Rgs13, the z-score was inactive: -0.848.

For GGUGUAUGUCACCCUGACCTT against Sag, the z-score was inactive: -0.617.

GGCCCUCCUCAAGACUCAUTT against Flywch2: the z-score was inactive: 0.0808.

For the sequence GGCAGUUUGAGAUUGUGUCTT against Thbs2, the z-score is inactive: -0.00379.

On to GGAGGUACAUCAUCUACAATT against Tmem268, for which the z-score is inactive: -0.416.

Turning to GGAUAGCUUGUGUAGACACTT against Olfr263, the z-score is inactive: -0.571.

Consider GACUAGAACAACAGAAAGUTT against Vax2, for which the z-score was inactive: 0.0607.

As to GGUUUUGAGCCUCAAAAAATT against Col6a2, the z-score is inactive: -0.0556.

As to CCACAUGUUCAGUUCUAAATT against Ddhd1, the z-score was inactive: 0.955.

Take GGAAAGUUGAUUCUUGUGUTT against Bmpr1a: the z-score was inactive: -0.151.

Turning to GCGGGACUUUAUCUCAUCCTT against Mfsd4b1, the z-score was inactive: -0.815.

As for GGAAUAGAAGCACUGUGUGTT against Brs3, the z-score was inactive: -1.35.

GGAAGAGAUAAUGAACUUCTT against Dspp: the z-score was inactive: 1.57.

Consider GGCAAAGUAGAAGCUAAACTT against Pycrl, for which the z-score was inactive: 0.373.

CCUUUUUCAUUGGCUGCCCTT against Psors1c2: the z-score is inactive: 1.1.

Regarding GGUGACCUGUAAAUGCAACTT against Trafd1, the z-score was inactive: -1.48.

Turning to GGAUAAACGGGACAAAGCATT against Hcls1, the z-score was inactive: -1.78.

For the sequence GGAGAUGCCAAAGUUAUGATT against Cmss1, the z-score was inactive: -0.751.

CCACUCUGAGAUAUCUGAATT against Olfr1277: the z-score is inactive: -0.128.

Regarding GCGGUUAACAGGCAUGCGATT against Emc2, the z-score is inactive: 1.66.

Regarding CGAUAUUUGGUGUGAAAUGTT against Tmem70, the z-score is inactive: -0.609.

With GGUAUAAAGCAUGAGUAUCTT against Dstn, the z-score is inactive: 0.547.

Regarding GGUCCUGUUUCCAAGAGUATT against Cnih1, the z-score is inactive: -1.34.

As for GGUACAGUUACGGUCAAAUTT against Zfp952, the z-score is inactive: 0.739.

Regarding GGAGGUCACACAUUCUGUGTT against Itgb7, the z-score was inactive: -0.325.

As to GGUAAGCUCCAAUUAUGCCTT against Ubr3, the z-score was inactive: 0.0463.

Regarding GCUCCGGAACAGAUAAAACTT against Kat14, the z-score is inactive: -0.485.

GGCUCUGAAUUAACUCCAGTT against Srpk3: the z-score is inactive: -0.654.

For GGAUUCUGGUGCUUUCCAGTT against Ptk7, the z-score was inactive: -0.965.

For the sequence CCAUCUUCAGCAGUGGAAATT against Rph3al, the z-score is inactive: -1.

Turning to GCAAGAUCCGUACAUAGCATT against Wdr48, the z-score was inactive: -1.43.

In the case of GGAUCGCUCAUGGAUAUUUTT against Fus, the z-score was inactive: -1.57.

For GGACACAAGGUCGCCAUCUTT against Tcf7l1, the z-score is inactive: -0.502.

As for GCAGAAGUUCUACAAUUACTT against Mei4, the z-score was inactive: -1.55.

Take GAAAUGUCCAUCCAAAAGCTT against Sprr2k: the z-score was inactive: 0.602.

In the case of GCUGAGUGCCAAGAUUAUATT against Gnpda1, the z-score was inactive: 0.319.

On to GGCAGAGAGCAACUAUAUUTT against C1galt1, for which the z-score was inactive: 0.892.

Regarding CCCUACACAGAUCACCUAATT against G0s2, the z-score is inactive: 0.0618.

For GCCUUCAAGUAUUUGGAAGTT against Aff1, the z-score was inactive: 0.723.

In the case of GUCCCAAGAGGCUCAUUCUTT against Krtap4-13, the z-score is inactive: 0.23.

With CGAUUUCAGCUUAAAGCACTT against Lmo3, the z-score is inactive: 0.0353.

GGACAAGUUGUUGGACUACTT against Hltf: the z-score was inactive: -1.02.

On to GCAAGAAGGUUAUUCUAUATT against Atxn3, for which the z-score is inactive: 0.399.

Consider GGCUGAAAUUGAACAGUACTT against Atp6v1g1, for which the z-score is inactive: -1.22.

Turning to GGAUUGAGUGACGACUGACTT against Nova2, the z-score is active: 2.25.

Regarding GCCACCACAAUCAACAUGCTT against Ifitm1, the z-score is inactive: -1.4.

On to CCUGGUCAGUCUUACUUCUTT against Rbks, for which the z-score is inactive: -1.17.

For the sequence GGACAUUACCUCCUUUGACTT against Tbl3, the z-score was inactive: -0.289.

Regarding AAGACUGAGAGAGUCUUUUTT against Tcte3, the z-score was inactive: -0.761.

With GCUAAGAUUGUCAUGAUGUTT against Bambi, the z-score is inactive: -1.02.

As to GGAGACAACCUGUACUCAGTT against Zfp352, the z-score was active: -3.18.

With GGGAUGCAGUGACCAUAGATT against Aldh3b1, the z-score is inactive: 0.485.

Take CGCAAAUCUCAGGAAAGAATT against Anxa9: the z-score was inactive: -0.443.

In the case of GGUAAGAUUAAAAGACUCATT against Cpsf2, the z-score is inactive: 0.994.

With GCAGGAAGGAGAUUUUAUATT against Tbpl1, the z-score is inactive: -1.62.

On to GGCAUCAACUUCAUGCUGATT against Olfr535, for which the z-score was inactive: -0.231.

On to GGAUCUCUUUCUUCACAGUTT against Pcdhgb7, for which the z-score is inactive: -0.0151.

In the case of GGUCAAAGUACUGAAGCUUTT against Mapre1, the z-score was inactive: -1.65.

Turning to GGACAAAAUCUUUGCUCUATT against Olfr1184, the z-score was inactive: 0.239.

Take CCUUCACAAGGACAAGUUUTT against Larp7: the z-score was inactive: 0.881.

GGUAACAUCCUAUAAAUAGTT against Arl5a: the z-score was inactive: 0.271.

On to GGAAACCUUUGAUUGUUCATT against Taar2, for which the z-score was inactive: 1.59.

For the sequence GGCUUGAUUUAUGAAUGUATT against Cacnb2, the z-score is inactive: -0.707.

As for CCAGAUGUCAACCAAUAUATT against Best1, the z-score is inactive: -0.523.

As to GGAUGGACUCCAGAAAAAUTT against Mmp1b, the z-score is inactive: 0.51.

Consider GGUACUGCUAUGAGAAACUTT against Adam22, for which the z-score was inactive: 0.224.

In the case of GGACAAGAUUCUAAACUGCTT against Wdr37, the z-score is inactive: 1.03.

Take GGACUUGAAAGAUAAAUAGTT against Crx: the z-score was inactive: 0.163.

For the sequence GCUAACUGAGCUGCCGGAATT against Lrrn3, the z-score is inactive: 0.264.

Regarding “GCUUUUGGUACAGGAUGCCTT against 5830411N06Rik”, the z-score is active: -2.68.

Turning to GCAAGAUCCAGCCCUAUCATT against Usp17lc, the z-score is inactive: -0.439.

As to GGACACUGGGCUUAGCACUTT against Krt31, the z-score was inactive: -0.0893.

Regarding GGAUCAUUGUUCUCUCAAGTT against Psmg2, the z-score is inactive: 0.186.

With CGUUUGUGGUUAAGGUAGATT against Sh2b1, the z-score is inactive: -0.427.

Regarding CCGUUUCUAUCGAGUGAAATT against Celf2, the z-score was inactive: 0.581.

On to GUUGUGCAAUCAACAAGGUTT against Fam98c, for which the z-score is active: 2.05.

Consider “GCUAGUUCUCAUCAGCUACTT against 8030451A03Rik”, for which the z-score was inactive: 0.68.

Turning to GCUUGCUCUAUUGCCAAUATT against Crem, the z-score was inactive: 0.367.

In the case of GCACAUUCCUAAGACAAUCTT against Sun5, the z-score was inactive: 0.168.

Consider CGGGAACUCACCGAAAAGATT against Gramd1c, for which the z-score was inactive: 1.55.

With CCAUAUCGAGUACCUCCAATT against Rtn4rl1, the z-score is inactive: -0.522.

For UUCCUCAAUGCUUCCAUUUTT against Olfr1454, the z-score was inactive: 1.45.

As to GCAGACAGAUCGCUUCAACTT against Dok4, the z-score was inactive: -0.882.

In the case of GCUGAUGUAUGGAAUGCUCTT against Trappc1, the z-score was inactive: -0.603.
